Data from patent publication US20250161244A1, “PREPARATION METHOD AND USE OF LIPOSOME ENCAPSULATING POLYPEPTIDE, SUBEROYLANILIDE HYDROXAMIC ACID (SAHA), AND VITAMIN A” (UNION HOSPITAL, TONGJI MEDICAL COLLEGE, HUAZHONG UNI. OF …, priority 2023, published 2025).

System: LX-2 cells (human HSCs)
Assay: CCK8 experiment, proliferation of LX-2 cells
Assay type: cell-based
Details: CCK-8
Protocol: The liposome suspension prepared in Example 1 was centrifuged in an ultracentrifuge (10,000 rpm, 30 min) to fully precipitate the liposome; followed which a supernatant was discarded, and the remaining liposome was resuspended in a cell medium (a high-glucose Deme medium) for subsequent experiments.
• 1. Experimental purpose: the drug and its various components were added into the cell medium, respectively to explore whether there was an inhibitory effect on the proliferation of HSCs. The continuous activation of HSC was a key link in the development of hepatic fibrosis, and inhibiting the proliferation or activation of HSC was an important means to treat hepatic fibrosis. • 2. Experimental method: a “CCK8 experiment” was conducted to verify the effectiveness of the liposome drug disclosed in the present disclosure on liver fibroblasts, specifically as follows: • LX-2 cells (human HSCs) were inoculated in a 96-well plate at a density of 8,000 cells/well. After 24 h of culture, different components of the drug were respectively incubated with the cells for 48 h, and then a CCK-8 reagent was used for cytotoxicity detection. […]

O=C(CCCCCCC(=O)Nc1ccccc1)NO [SAHA, suberoylanilide hydroxamic acid]
cell proliferation activity relative to that of the original (48 h, concentration not specified (2.5/5 μM tested)): about 60% | inhibitory effect on LX-2 cells proliferation (48 h incubation, tested at 2.5 μM and 5 μM): significant inhibitory effect
